Data taken from publication PMC5855860.
No constants are given. Whether binding was seen depends on the method and setting. For some assays here: Binding seen in cells or lysates may run through a third protein. Tags and fused reporters may be left off the sequences shown.

What was measured:
[1] = molecular target: T1, GST-RTNLB8 fusion protein (Arabidopsis thaliana) (UniProt Q9SS37); assay: pull-down; GST fusion or GST only on glutathione-sepharose beads, incubated with T7-tagged proteins from E. coli; bound proteins eluted with glutathione; blot with anti-T7 tag and anti-GST antibodies
T1 sequence: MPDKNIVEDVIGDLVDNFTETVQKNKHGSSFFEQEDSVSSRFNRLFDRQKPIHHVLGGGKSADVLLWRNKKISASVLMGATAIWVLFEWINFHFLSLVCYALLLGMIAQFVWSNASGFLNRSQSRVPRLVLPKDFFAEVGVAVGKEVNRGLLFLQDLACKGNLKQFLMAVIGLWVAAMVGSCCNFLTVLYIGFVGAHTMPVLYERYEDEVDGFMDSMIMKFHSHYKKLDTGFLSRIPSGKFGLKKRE

[2] = molecular target: T2, reticulon-like protein B1 (RTNLB1), yeast two-hybrid fusion (Arabidopsis thaliana) (UniProt Q9SUR3); assay: two-hybrid; LexA bait fusions (pSST91) and GAL4 activation domain prey fusions (pGAD424) in yeast CTY10-5d, 30 °C; colony colour on SD medium with X-Gal lacking leucine and tryptophan; the same strains also in liquid ONPG β-galactosidase assays
T2 sequence: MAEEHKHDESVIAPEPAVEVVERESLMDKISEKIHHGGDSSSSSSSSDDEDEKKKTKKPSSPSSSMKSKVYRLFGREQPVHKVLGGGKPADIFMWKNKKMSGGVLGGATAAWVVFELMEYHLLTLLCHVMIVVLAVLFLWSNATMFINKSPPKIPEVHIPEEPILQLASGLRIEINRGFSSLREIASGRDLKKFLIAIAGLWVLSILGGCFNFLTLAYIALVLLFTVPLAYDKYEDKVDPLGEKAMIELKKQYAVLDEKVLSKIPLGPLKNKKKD

[3] = molecular target: T3, RETICULON-LIKE3 (RTNLB3), yeast two-hybrid fusion (Arabidopsis thaliana) (UniProt Q9SH59); assay: as above
T3 sequence: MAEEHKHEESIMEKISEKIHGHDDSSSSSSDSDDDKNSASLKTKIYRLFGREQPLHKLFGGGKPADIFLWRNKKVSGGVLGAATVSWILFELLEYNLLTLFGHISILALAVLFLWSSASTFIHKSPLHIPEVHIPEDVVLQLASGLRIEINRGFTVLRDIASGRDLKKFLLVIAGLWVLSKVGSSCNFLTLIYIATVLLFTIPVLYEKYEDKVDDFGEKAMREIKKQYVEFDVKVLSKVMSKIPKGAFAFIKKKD

[4] = molecular target: T4, RTNLB7, yeast two-hybrid fusion (Arabidopsis thaliana) (UniProt Q9M145); assay: as above
T4 sequence: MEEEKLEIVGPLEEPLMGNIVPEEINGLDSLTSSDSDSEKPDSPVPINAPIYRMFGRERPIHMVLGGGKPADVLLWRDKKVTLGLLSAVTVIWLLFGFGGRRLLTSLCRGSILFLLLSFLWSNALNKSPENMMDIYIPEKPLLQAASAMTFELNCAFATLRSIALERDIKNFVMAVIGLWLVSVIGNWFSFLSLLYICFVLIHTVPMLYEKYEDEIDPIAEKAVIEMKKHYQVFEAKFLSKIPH

[5] = molecular target: T5, reticulon-like protein B2 (RTNLB2), yeast two-hybrid fusion (Arabidopsis thaliana) (UniProt Q9SUT9); assay: as above
T5 sequence: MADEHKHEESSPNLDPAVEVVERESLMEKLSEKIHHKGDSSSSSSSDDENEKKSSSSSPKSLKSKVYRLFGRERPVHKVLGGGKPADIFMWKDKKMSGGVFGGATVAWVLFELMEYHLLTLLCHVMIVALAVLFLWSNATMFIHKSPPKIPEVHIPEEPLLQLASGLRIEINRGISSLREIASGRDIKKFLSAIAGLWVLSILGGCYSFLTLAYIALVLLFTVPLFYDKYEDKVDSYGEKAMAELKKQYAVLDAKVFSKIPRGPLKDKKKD

[6] = molecular target: T6, RTNLB6, yeast two-hybrid fusion (Arabidopsis thaliana) (UniProt Q6DBN4); assay: as above
T6 sequence: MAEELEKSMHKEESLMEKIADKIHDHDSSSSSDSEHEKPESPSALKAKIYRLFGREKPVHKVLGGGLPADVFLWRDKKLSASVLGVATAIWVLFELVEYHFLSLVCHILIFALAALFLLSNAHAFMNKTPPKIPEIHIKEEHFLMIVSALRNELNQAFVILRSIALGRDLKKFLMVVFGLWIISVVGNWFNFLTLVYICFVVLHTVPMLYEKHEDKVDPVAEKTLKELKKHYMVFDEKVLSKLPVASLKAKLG

[7] = molecular target: T7, reticulon-like protein B4 (RTNLB4), yeast two-hybrid fusion (Arabidopsis thaliana) (UniProt Q9FFS0); assay: as above
T7 sequence: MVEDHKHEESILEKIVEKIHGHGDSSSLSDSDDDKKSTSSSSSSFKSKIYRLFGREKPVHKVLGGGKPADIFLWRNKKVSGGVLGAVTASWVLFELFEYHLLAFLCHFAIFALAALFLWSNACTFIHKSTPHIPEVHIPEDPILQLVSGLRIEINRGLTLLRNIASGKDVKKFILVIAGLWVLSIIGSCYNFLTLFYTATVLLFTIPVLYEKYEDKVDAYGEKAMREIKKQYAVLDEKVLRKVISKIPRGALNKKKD

[8] = molecular target: T8, RTNLB8, yeast two-hybrid fusion (Arabidopsis thaliana) (UniProt Q9SS37); assay: as above
T8 sequence: T1 sequence

[9] = molecular target: T9, RTNLB5, yeast two-hybrid fusion (Arabidopsis thaliana) (UniProt O82352); assay: as above
T9 sequence: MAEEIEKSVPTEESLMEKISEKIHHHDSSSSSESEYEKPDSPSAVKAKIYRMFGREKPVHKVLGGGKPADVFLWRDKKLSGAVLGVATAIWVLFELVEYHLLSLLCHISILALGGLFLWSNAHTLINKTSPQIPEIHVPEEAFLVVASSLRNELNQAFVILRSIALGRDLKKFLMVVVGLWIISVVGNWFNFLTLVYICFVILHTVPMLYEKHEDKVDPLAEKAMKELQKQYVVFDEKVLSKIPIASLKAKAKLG

[10] = molecular target: T10, RETICULON-LIKE3 (RTNLB3), yeast two-hybrid fusion (Arabidopsis thaliana), Q9SH59; assay: as above; settings: remark: other sources report otherwise
T10 chain: T3 sequence

[11] = molecular target: T11, RTNLB6, yeast two-hybrid fusion (Arabidopsis thaliana), Q6DBN4; assay: as above; settings: remark: other sources report otherwise
T11 chain: T6 sequence

Measured: binding

B1: T7-tagged-RTNLB8 protein (protein, UniProt Q9SS37 1-247)
chain: T1 sequence
no binding: [1]

B2: RTNLB5, yeast two-hybrid fusion (protein, UniProt O82352 1-255)
chain: T9 sequence
not listed: [1] | [10] | [11]
no binding: all other assays above

B3: RTNLB7, yeast two-hybrid fusion (protein, UniProt Q9M145 1-244)
chain: T4 sequence
not listed: [1] | [10] | [11]
no binding: all other assays above

B4: RTNLB6, yeast two-hybrid fusion, Q6DBN4 1-253 (protein)
chain: T6 sequence
no binding: [10] | [11]

B5: RETICULON-LIKE3 (RTNLB3), yeast two-hybrid fusion, Q9SH59 1-255 (protein)
chain: T3 sequence
no binding: [11]
